We go through 62 compounds from PubChem BioAssay AID493014 (National Center for Advancing Translational Sciences (NCATS), 2011).

One may read the AC50 as the concentration at which the activity in the assay is half-maximal.

The list shows a part of the results. Shown are side measurements of this screen, not its main read-out; they come without a call. The list favours compounds with an active or inconclusive main result. Potencies come from curve fits of mixed quality, noted in brackets.

The nature of the assay: qHTS Assay to Find Inhibitors of Chronic Active B-Cell Receptor Signaling. As to conditions: ABC-DLBCL IkBa-CBG/CBR reporter, luminescence ratio (green luciferase fused to IkBa over red control in TMD8 lymphoma cells), 4 h. From the text: NIH Molecular Libraries Probe Production Network [MLPCN] NIH Chemical Genomics Center [NCGC] MLPCN Grant: 1 R03 DA031086-01A1 PI Name: Dr. R. Eric Davis NCGC Assay Overview: Diffuse large B-cell lymphoma (DLBCL) is the most common category of non-Hodgkin lymphoma, with ~20,000 new cases per year in the United States. DLBCL should be regarded as a collection of different neoplasms. Microarray gene expression analysis has defined two principal types of DLBCL, named for their similarity to normal B cell stages or activation states: a germinal center B-cell (GCB) type, and an activated B-cell (ABC) type. In ABC-DLBCL, a constitutive high-level activity of the NF-kappaB family of transcription factors has been observed (1) and NF-kappaB target genes are more highly expressed in ABC primary tumors than in GCB tumors. Functional studies have shown a constitutive high-level activity of the IkappaB (inhibitor of kappa-B) kinase (IKK) complex. […] Further analysis of DLBCL primary tumors for NF-kappaB target gene expression imply that although CARD11 is required for constitutive IKK activity in all ABC-DLBCL lines, mutations in CARD11 may be the root cause of IKK activation only in lines or tumors with such mutations. In other words, CARD11 mutations may explain NF-kappaB activation in only 10% of ABC-DLBCL cases. […] This process has been termed 'chronic active BCR signaling' (CABS). The goal of this screen is to find small-molecule inhibitors of the CABS pathway found in ABC-DLBCL lines using a cell-based assay that measures IkappaBalpa stability, which has already been extensively validated in the OCI-Ly3 line (PubChem AID:445; REF: 4). […] The assay uses green (CBG68) and red (CBR) emitting beetle luciferases [Chroma-GloTM developed by Promega Corp.] where the green luciferase is fused to IkappaBalpha and the red luciferase is present in its native state. Both luciferase genes are stably present in the TMD8 human ABC DLBCL cell line, but their expression is under the control of tetracycline-inducible promoters. Following the addition of doxycycline to induce expression of the luciferases, the green luminescence in control cultures rises only slowly because the CBG fusion partner IkappaBalpha is targeted by IKK activity for rapid degradation. In contrast, green luminescence rises rapidly in the presence of proteasome inhibitors or IKK inhibitors. The rise in red luminescence of CBR is not affected by proteasome or IKK inhibitors, and serves as normalization for cell number and nonspecific effects. Compounds were screened as a concentration-titration series that ranged from 46 uM to 3 nM.
NCGC Assay Protocol Summary: Cells were seeded in 1536-well plates at 5000 cells/4uL in IMDM medium containing 0.5% FBS, w/o phenol red, 1% penicillin/streptomycin. Then, 23 nL of compounds or DMSO were delivered to each well using a pin tool. One uL 20ng/ml doxycycline was then dispensed into white solid 1536-well plates and the plates were incubated at 37C/5% C02 in a cell incubator for 4 hrs. Then 4 uL luminescent substrate mix (in-house prepared: 150 mM Tris-Cl, pH 7.6, 3 mM MgCl2, 1% Triton X-100, 5 mM DTT, 0.2 mM CoA, 0.15 mM ATP, 5 mM D-luciferin, final concentrations) was added to each well. The plate was incubated at r.t. for 10-15 min. The plates were measured on a ViewLux plate reader for green luminescence (540/20 nm filter) and red luminescence (618/8 nm filter). The green and red luminescent signals were corrected for red and green luminescence filter overlap using previously determined filter calibration constants (determined using the procedure outlined in the Promega Technical Manual; REF 4). The %Activity was determined from the ratio of corrected green/red luminescent values. MG132 were used as control. […] Red luminescent %Activity was normalized to the difference between red luminesence in basal cells (0%Activity) and zero luminescence (-100% Activity). […]

Where [1] appears, read: measured here: CBR red luminescence, cell number.
Setting [2] is: measured here: IkBa-CBG green luminescence.

In the case of `Cc1ccc(/C=C/C2=NN(Cc3ccccc3)C(=O)CC2)cc1`, the half-maximal activity concentration (AC50) under setting [1] was 16.4 µM [rising, single point].
In the case of `Cc1nn(C)c(C)c1CN(C)C(=O)c1cnn2c1NC(c1ccccc1)CC2C(F)(F)F` (stereo unspecified), the AC50 under setting [1] was 22.4 µM [rising, single point].
As for `Cc1nc2c(-c3ccc(Cl)cc3)c(C)[nH]n2c(=O)c1Cc1ccccc1`, the AC50 under setting [1] was 20 µM [falling, single point].
Consider `O=C(N/N=C/c1ccncc1)c1cc2ccccc2o1`, for which the AC50 under setting [1] is 18.4 µM [falling, partial curve, poor fit].
`Cc1ccc(C(=O)Nc2sc3c(c2C(=O)O)CCCC3)o1`: the AC50 under setting [1] is 1.26 µM [falling, full curve, poor fit].
For `COc1ccc2oc(C(=O)Nc3nccs3)c(C)c2c1`, the AC50 under setting [1] was 1.16 µM [falling, full curve].
`COc1ccc(NC(=O)C2C3CCC4C(CCC32)C4(Cl)Cl)cc1` (stereo unspecified): the half-maximal activity concentration (AC50) under setting [1] is 4.61 µM [rising, full curve].
For `COC(=O)C(O)(NC(=O)OCc1ccccc1)C(F)(F)F` (stereo unspecified), under setting [1], the AC50 is 0.082 µM [rising, full curve, poor fit].
Regarding `O=C(CSc1ccccn1)Nc1nc2c(ccc3ccccc32)s1`, the half-maximal activity concentration (AC50) is, setting by setting: under setting [1], 8.2 µM [falling, partial curve]; under setting [2], 14.6 µM [rising, partial curve, poor fit].
On to `CCC1CCCCN1CCCCOc1cccc(Cl)c1` (stereo unspecified), for which the AC50 under setting [1] was 2.82 µM [falling, partial curve, poor fit].
Turning to `CC(=O)c1ccc(-c2ccc(C(=O)NC3CCCCCC3)o2)cc1`, the AC50 under setting [1] was 11.2 µM [falling, partial curve, poor fit].
`Cc1cc(-c2ccc(C(=O)O)s2)cnc1N`: the AC50 under setting [1] was 2 µM [falling, full curve].
For the compound `CC(C)Oc1c(Br)cc(Br)cc1/C=N/NC(N)=S`, the AC50 by setting is: under setting [1], 23.1 µM [falling, partial curve, poor fit]; under setting [2], 18.4 µM [falling, single point].
With `O=C(CSc1nnc(-c2cccnc2)o1)Nc1nccs1`, under setting [2], the AC50 was 29.1 µM [falling, single point].
Regarding `CN(C)S(=O)(=O)N(CC(=O)N(Cc1ccccc1)Cc1ccccc1)c1ccccc1`, under setting [1], the AC50 was 2.91 µM [falling, single point].
Take `N#Cc1c(NC(=O)c2cccc(S(=O)(=O)Nc3ccc(C(=O)O)cc3)c2)sc2c1CCCC2`: the AC50 under setting [1] is 20 µM [falling, single point].
In the case of `COc1cc(/C=C2\SC(=O)N(c3ccc(O)cc3)C2=O)cc(OC)c1OC`, the AC50 under setting [1] was 2.51 µM [falling, full curve, poor fit].
On to `Cc1ccccc1-c1cc(C(=O)O)nn1CC1CC(c2cccc([N+](=O)[O-])c2)=NO1` (stereo unspecified), for which the AC50 under setting [1] is 16.4 µM [falling, single point].
The same measure, in the same setting: the value for `COc1ccccc1NS(=O)(=O)c1ccc(C)c(C(=O)NCc2cccnc2)c1` was 1.3 µM [falling, full curve, poor fit]; that for `O=S1(=O)CCOC[C@H](CC2CCCCC2)N1Cc1cccc(F)c1` was 12.6 µM [falling, partial curve, poor fit].
Still for that read-out and setting: the value for `Cc1c(C(=S)NC(=O)C2CC2)c(=O)n(-c2ccccc2)n1C` was 2.24 µM [rising, full curve]; that for `COc1cccc(NC(=O)CSc2nc3ccccc3cc2Cc2ccccc2)c1` was 6.31 µM [falling, single point]; that for `Cn1c(N)c(C(=O)COC(=O)c2ccc(Cl)c(S(=O)(=O)N3CCCCC3)c2)c(=O)n(C)c1=O` was 4.61 µM [rising, full curve, poor fit].
As to `CCOc1ccc(S(=O)(=O)N2CCN(S(=O)(=O)c3ccc(OCC)cc3)C(C)C2)cc1` (stereo unspecified), the half-maximal activity concentration (AC50) under setting [1] was 11.2 µM [rising, partial curve, poor fit].
Turning to `Cc1ccccc1NC(=O)c1ccc(CN2CCC(Cc3ccccc3)CC2)cc1`, the AC50 under setting [1] is 0.562 µM [falling, full curve].
Turning to `CCOc1ccccc1C1CC(=O)Nc2cc(OC)c(OC)c(OC)c21` (stereo unspecified), under setting [1], the AC50 is 0.794 µM [rising, full curve, poor fit].
For `Cc1cc(C)nc(Nc2n[nH]c(-c3ccccc3N)n2)n1`, under setting [1], the half-maximal activity concentration (AC50) is 11.2 µM [falling, partial curve, poor fit].
Still for that read-out and setting: the value for `c1ccc(CCc2nc(-c3cccnc3)no2)cc1` was 14.6 µM [falling, partial curve, poor fit].
`CN(C)C(=O)c1cccn(Cc2ccc(C(F)(F)F)cc2)c1=O`: under setting [1], the AC50 was 0.2 µM [falling, full curve, poor fit].
With `O=C(CN1C(=O)COc2ccc(S(=O)(=O)N3CCCCCC3)cc21)NCc1ccc(Cl)cc1`, the AC50 under setting [1] is 8.91 µM [falling, single point].
Still for that read-out and setting: the value for `CCSc1nsc(NC(=O)Nc2ccc(F)cc2F)n1` was 0.316 µM [falling, full curve]; that for `CC1CCCN(C(=O)CSc2nnc(-c3ccc(S(=O)(=O)N4CCOCC4)cc3)n2C)C1` (stereo unspecified) was 31.6 µM [rising, single point].
With `N#Cc1c(NC(=O)CSc2n[nH]c(N)n2)oc(-c2ccccc2)c1-c1ccccc1`, under setting [1], the AC50 was 14.6 µM [falling, partial curve].
Take `CC1(C)O[C@@H]2[C@H](O1)[C@@H](COS(=O)(=O)O)O[C@H]2n1cnc2c(N)ncnc21`: the AC50 under setting [1] is 23.1 µM [rising, partial curve, poor fit].
Same read-out and setting: the value for `CCN(CC(=O)NCc1cccs1)CC(=O)Nc1c(Cl)ccc(C)c1Cl` was 1.46 µM [rising, full curve, poor fit].
As to `COc1ccc2nc(NC(=S)NC(=O)c3ccco3)sc2c1`, the AC50 is, setting by setting: under setting [1], 7.08 µM [falling, full curve]; under setting [2], 3.55 µM [falling, full curve, poor fit].
With `CC(C)(C)n1nnnc1C(c1cccs1)N(Cc1cccnc1)Cc1ccccc1Cl` (stereo unspecified), the half-maximal activity concentration (AC50) under setting [1] is 14.6 µM [falling, partial curve] and the concentration at half-maximal activity (AC50) under setting [2] was 11.6 µM [rising, partial curve, poor fit].
Regarding `O=C(COC(=O)c1ccc(S(=O)(=O)NCc2ccco2)cc1)NC1CCCCCC1`, under setting [1], the AC50 was 29.1 µM [rising, single point].
Consider `Brc1ccc(CSc2nnc(-c3cnccn3)n2Cc2ccco2)cc1`, for which, under setting [1], the concentration at half-maximal activity (AC50) is 18.4 µM [falling, single point].
`Cc1ccc(NC(=O)c2cc(C(C)(C)C)nn2Cc2ccccc2)cc1`: under setting [1], the concentration at half-maximal activity (AC50) is 0.631 µM [falling, full curve, poor fit].
`Cn1nnnc1Sc1ncnc2scc(Br)c12`: under setting [1], the AC50 is 3.66 µM [falling, full curve].
For `COc1ccc(N2C(=O)CN(Cc3cc(OC)c(OC)c(OC)c3)C2=S)cc1`, the half-maximal activity concentration (AC50) under setting [1] is 8.91 µM [falling, partial curve, poor fit].
`CC(=O)c1ccc(S(=O)(=O)Nc2cccc(-c3ccc(N4CCOCC4)nn3)c2)cc1`: under setting [1], the AC50 is 8.2 µM [falling, partial curve, poor fit].
As for `CCN(CC)c1ccc(NC(=O)C(C)C)cc1`, the half-maximal activity concentration (AC50) under setting [1] is 6.31 µM [rising, full curve, poor fit].
`CCOc1ccc(C(=O)NCc2ccc3c(c2)OCO3)cc1OCC`: under setting [1], the half-maximal activity concentration (AC50) was 5.62 µM [rising, partial curve, poor fit].
Same read-out and setting: the value for `Cn1c(=O)cc(OCC(=O)N2CCC(N3CCCCC3)CC2)c2ccccc21` was 0.517 µM [rising, full curve, poor fit]; that for `Cc1ccc(C(=O)n2c(N)nc3ccccc32)cc1` was 0.447 µM [falling, full curve]; that for `OCCCNc1c2c(nc3cc(-c4ccc(Cl)cc4)nn13)CCC2` was 0.2 µM [rising, full curve, poor fit].
Regarding `CN(C(=O)COC(=O)CSc1ccc([N+](=O)[O-])cc1)c1ccccc1`, under setting [1], the concentration at half-maximal activity (AC50) is 5.8 µM [falling, full curve].
Take `O=c1[nH]c2ccc(NC(=S)Nc3ccc(Cl)cc3)cc2[nH]1`: under setting [1], the AC50 is 0.146 µM [falling, full curve, poor fit].
Take `CC(=O)N1C=Cc2c(c(C)c3c([nH]c4ccccc43)c2C)C1`: the AC50 under setting [1] was 8.91 µM [falling, partial curve, poor fit].
For `N#CCc1ccc(NC(=O)/C=C/c2ccc([N+](=O)[O-])o2)cc1`, the AC50 under setting [1] was 11.2 µM [falling, partial curve, poor fit].
With `COc1cccc(/C(O)=C2\C(=O)C(=O)N(c3ccccn3)C2c2cccc(OC)c2OC)c1` (stereo unspecified), the AC50 under setting [1] was 17.8 µM [falling, partial curve, poor fit].
As to `CC(C)N1CCc2c(sc(NC(=O)c3ccc(C(=O)c4ccccc4)cc3)c2C(N)=O)C1`, the AC50 under setting [1] was 25.1 µM [falling, single point].
In the case of `O=C(NN=Cc1cc(Br)c(O)c(Br)c1)c1ccccc1NS(=O)(=O)c1cccs1`, the half-maximal activity concentration (AC50) under setting [1] was 0.651 µM [rising, partial curve, poor fit].
Regarding `Cc1cc(-c2nc3cccnc3s2)ccc1NS(=O)(=O)c1ccc2c(c1)OCCO2`, the AC50 under setting [1] is 10.3 µM [falling, partial curve, poor fit].
For the compound `O=c1c(C(c2ccc(F)cc2)c2c(O)nc3n(c2=O)CCS3)c(O)nc2n1CCS2`, under setting [1], the AC50 was 3.16 µM [rising, partial curve, poor fit].
With `CC1CCN(CC(O)COCCC23CC4CC(CC(C4)C2)C3)CC1` (stereo unspecified), under setting [1], the AC50 is 29.1 µM [falling, single point].
In the case of `CC(Nc1nc(N2CCN(S(C)(=O)=O)CC2)nc2ccccc12)c1ccccc1` (stereo unspecified), the AC50 under setting [1] is 29.1 µM [rising, single point].
`CCN(CC)C(=O)C1CC(c2ccc(OC)cc2)=NO1` (stereo unspecified): the AC50 under setting [1] is 35.5 µM [falling, single point].
Regarding `CC(C)(C)C(=O)CSc1ncnc2c1cnn2-c1ccccc1`, under setting [1], the AC50 was 0.398 µM [rising, full curve, poor fit].
Same read-out and setting: the value for `Cc1coc(C)c1C(=O)CC1(O)C(=O)Nc2cc(Cl)cc(Cl)c21` (stereo unspecified) was 31.6 µM [falling, single point].
